Laboratory results reported in article PMC4062937.

By UniProt entry, the sequences of proteins in these tests, tags left out. Residues count along the entry.
UniProt Q13586, residues 23-685: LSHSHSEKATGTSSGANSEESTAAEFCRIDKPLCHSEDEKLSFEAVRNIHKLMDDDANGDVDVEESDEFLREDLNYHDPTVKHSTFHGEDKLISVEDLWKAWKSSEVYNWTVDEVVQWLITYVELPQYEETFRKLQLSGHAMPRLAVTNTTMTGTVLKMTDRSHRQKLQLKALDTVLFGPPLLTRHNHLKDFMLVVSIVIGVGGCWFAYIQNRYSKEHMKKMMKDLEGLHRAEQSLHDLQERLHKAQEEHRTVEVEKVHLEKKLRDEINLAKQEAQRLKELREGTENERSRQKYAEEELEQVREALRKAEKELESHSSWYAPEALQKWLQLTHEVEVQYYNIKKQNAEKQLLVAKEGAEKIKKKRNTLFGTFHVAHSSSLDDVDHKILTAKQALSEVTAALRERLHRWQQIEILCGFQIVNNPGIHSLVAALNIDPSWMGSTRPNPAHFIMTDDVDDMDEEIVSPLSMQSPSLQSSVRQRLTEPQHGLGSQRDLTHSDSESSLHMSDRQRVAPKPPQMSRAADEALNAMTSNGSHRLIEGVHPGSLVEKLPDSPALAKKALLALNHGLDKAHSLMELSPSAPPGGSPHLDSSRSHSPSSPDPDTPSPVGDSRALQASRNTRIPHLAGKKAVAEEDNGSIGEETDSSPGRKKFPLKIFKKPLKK
UniProt P07996, residues 19-1170: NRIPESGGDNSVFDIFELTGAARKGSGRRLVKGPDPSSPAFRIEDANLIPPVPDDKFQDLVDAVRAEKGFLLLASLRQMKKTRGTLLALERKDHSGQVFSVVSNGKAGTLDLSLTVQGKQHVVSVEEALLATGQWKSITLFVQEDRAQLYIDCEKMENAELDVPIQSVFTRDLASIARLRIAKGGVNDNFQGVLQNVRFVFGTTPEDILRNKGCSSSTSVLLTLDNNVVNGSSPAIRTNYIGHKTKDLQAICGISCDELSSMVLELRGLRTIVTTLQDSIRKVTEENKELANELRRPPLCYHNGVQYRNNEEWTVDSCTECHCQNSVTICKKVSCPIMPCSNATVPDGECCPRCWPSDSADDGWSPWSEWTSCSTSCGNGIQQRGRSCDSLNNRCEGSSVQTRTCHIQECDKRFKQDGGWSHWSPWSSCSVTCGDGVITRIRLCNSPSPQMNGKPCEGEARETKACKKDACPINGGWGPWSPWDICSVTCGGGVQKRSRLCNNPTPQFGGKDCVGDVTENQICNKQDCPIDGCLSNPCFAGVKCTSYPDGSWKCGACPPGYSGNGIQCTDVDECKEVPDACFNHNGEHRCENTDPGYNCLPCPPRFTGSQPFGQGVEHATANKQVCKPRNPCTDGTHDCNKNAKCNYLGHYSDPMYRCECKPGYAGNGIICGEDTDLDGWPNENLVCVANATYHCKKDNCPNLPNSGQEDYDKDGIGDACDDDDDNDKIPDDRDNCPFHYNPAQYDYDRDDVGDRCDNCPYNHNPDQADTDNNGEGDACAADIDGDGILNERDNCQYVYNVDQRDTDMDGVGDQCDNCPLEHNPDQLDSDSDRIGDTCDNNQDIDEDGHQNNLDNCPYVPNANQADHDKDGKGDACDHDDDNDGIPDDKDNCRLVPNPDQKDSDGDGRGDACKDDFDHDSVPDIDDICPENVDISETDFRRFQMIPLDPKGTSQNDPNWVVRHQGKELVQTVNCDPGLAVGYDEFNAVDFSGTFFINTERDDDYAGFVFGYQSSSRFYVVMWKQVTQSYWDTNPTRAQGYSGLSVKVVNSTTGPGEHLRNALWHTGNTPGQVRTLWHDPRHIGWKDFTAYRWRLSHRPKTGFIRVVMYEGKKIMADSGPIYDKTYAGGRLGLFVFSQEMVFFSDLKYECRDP
UniProt Q96BY6: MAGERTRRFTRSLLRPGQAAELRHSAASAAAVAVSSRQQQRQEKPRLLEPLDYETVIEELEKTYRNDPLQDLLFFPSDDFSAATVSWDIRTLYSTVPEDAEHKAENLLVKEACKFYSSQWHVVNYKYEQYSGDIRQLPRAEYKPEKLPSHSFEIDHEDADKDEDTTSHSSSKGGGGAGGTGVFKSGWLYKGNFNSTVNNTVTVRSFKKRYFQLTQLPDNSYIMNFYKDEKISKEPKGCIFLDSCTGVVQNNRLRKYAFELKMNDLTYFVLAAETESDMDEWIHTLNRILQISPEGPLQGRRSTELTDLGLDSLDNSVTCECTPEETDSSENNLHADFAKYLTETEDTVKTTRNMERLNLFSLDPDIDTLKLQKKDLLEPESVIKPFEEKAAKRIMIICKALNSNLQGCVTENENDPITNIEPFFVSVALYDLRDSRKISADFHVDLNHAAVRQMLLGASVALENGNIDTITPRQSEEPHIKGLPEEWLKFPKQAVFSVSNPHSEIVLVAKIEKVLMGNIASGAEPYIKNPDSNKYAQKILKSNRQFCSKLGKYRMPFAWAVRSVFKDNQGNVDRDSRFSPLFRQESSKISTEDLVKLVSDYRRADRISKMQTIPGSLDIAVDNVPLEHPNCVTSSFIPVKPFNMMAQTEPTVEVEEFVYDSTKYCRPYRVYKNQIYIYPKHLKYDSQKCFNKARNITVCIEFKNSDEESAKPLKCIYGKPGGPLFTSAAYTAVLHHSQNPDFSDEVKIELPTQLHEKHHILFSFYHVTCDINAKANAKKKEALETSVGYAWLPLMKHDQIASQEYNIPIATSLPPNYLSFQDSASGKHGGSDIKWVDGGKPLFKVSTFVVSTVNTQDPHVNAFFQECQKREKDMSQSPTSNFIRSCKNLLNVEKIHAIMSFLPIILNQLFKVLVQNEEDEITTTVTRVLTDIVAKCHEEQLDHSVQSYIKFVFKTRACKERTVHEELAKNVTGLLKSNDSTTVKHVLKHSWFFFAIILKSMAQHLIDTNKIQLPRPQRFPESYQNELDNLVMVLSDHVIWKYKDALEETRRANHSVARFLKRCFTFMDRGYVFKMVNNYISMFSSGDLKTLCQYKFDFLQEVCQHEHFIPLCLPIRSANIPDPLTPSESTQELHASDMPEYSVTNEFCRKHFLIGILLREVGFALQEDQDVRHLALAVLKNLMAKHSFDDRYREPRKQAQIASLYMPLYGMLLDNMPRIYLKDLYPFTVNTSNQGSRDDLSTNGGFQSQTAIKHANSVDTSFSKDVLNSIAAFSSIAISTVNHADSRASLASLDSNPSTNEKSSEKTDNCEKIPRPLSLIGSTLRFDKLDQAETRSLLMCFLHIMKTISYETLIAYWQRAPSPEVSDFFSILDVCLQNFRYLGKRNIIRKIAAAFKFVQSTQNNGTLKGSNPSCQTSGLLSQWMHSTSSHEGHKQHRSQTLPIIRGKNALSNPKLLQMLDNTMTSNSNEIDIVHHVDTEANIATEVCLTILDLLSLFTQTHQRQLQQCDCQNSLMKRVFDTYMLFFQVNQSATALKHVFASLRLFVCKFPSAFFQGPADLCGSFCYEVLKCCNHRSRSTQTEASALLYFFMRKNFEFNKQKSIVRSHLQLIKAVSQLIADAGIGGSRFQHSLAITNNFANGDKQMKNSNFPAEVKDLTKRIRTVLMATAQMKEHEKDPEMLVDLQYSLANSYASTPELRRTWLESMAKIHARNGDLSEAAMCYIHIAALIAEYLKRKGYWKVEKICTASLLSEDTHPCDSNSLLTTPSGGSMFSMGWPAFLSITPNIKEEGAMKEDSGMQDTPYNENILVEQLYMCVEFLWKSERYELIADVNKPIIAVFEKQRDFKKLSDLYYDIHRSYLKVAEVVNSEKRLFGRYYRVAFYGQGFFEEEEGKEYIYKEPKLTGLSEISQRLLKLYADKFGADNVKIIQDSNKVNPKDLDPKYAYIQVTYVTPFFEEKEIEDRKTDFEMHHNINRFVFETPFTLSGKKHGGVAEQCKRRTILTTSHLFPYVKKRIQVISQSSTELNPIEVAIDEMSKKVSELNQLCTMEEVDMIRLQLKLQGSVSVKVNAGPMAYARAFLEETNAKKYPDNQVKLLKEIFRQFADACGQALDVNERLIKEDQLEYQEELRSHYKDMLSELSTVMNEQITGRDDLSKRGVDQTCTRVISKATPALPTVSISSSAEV
UniProt P35579: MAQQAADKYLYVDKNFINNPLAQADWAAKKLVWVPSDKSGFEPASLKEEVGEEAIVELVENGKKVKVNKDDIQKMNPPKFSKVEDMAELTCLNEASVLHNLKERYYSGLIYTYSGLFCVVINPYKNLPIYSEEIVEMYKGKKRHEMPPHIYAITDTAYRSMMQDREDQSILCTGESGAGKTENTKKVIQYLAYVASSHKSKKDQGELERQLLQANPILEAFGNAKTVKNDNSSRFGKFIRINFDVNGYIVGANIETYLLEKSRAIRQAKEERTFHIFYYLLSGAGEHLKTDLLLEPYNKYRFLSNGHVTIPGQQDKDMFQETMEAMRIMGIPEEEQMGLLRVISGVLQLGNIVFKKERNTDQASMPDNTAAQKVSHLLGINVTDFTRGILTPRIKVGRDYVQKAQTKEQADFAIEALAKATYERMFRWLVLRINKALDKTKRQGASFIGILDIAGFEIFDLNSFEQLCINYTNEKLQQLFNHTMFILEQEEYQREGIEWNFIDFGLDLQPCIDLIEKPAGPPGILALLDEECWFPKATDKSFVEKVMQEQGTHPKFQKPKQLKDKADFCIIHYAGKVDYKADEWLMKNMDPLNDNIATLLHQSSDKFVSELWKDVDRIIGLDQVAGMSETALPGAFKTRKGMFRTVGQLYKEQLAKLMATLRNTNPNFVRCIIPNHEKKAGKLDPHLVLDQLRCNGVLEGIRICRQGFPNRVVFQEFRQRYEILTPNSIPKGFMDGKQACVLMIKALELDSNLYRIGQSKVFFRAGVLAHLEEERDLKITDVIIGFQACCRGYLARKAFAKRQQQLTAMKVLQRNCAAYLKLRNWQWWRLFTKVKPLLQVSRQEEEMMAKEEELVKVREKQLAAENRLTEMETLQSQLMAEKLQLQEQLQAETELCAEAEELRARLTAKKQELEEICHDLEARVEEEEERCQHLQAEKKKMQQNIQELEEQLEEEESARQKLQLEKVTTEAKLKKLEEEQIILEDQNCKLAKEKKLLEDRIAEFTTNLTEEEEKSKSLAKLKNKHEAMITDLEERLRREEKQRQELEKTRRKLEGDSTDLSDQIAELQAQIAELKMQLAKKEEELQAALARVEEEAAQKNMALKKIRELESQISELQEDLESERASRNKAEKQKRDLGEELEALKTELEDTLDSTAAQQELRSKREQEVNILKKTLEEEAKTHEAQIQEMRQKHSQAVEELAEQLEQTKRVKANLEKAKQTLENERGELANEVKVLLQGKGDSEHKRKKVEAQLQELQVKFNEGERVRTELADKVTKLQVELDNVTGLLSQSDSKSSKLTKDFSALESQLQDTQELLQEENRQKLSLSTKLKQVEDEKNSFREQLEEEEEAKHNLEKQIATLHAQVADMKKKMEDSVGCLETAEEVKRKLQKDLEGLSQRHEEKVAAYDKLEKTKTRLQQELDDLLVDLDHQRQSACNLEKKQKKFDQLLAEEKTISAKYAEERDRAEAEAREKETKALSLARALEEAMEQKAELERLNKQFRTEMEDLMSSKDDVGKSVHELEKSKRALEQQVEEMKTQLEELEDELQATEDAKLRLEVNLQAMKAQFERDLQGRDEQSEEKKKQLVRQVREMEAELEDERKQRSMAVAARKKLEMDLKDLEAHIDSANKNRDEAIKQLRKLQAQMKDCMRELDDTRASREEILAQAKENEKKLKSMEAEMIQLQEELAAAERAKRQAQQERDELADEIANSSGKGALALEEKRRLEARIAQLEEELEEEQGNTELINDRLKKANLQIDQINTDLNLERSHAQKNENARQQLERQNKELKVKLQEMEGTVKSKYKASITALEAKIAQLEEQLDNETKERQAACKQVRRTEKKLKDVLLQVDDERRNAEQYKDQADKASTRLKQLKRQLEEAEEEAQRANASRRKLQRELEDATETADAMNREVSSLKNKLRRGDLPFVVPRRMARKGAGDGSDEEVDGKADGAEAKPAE

Target: Stromal interaction molecule 1 (human (endogenous in platelets)) (UniProt Q13586)
Test: affinity purification with mass spectrometry; STIM1 immunoprecipitated with an antibody to its C-terminus from human platelets (1 x 10^9 cells/ml) treated with TG for 1 min and lysed in RIPA lysis buffer; 5-15% gradient SDS-PAGE, in-gel trypsin digestion, LC-MS/MS; proteins with 2 or more peptides listed

| binding | Substance |
| --- | --- |
| binds | Thrombospondin-1 (from UniProt P07996 19-1170) |
| binds | Dedicator of cytokinesis protein 10 (from UniProt Q96BY6 1-2186) |
| binds | Myosin-9, non-muscle (from UniProt P35579 1-1960) |

No constants are given. Whether binding was seen depends on the method and setting. Binding seen in cells or lysates may run through a third protein. Here binding means that the protein was enriched with, or labelled near, the bait; the list need not be complete.
